From the supplement of paper PMC10689618
Structures can show the parent of a compound that is named as a salt. This is one part of the list. Many values rest on one well or one pass, so single values are uncertain.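 Primary human fetal astrocytes engulfed labelled rat cortical synaptosomes, measured as a red/green ratio corrected for calcein live-cell signal and scaled to the plate median. Toxicity meant calcein falling over 30%; decreased phagocytosis meant below 70% of median above 5 µM.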

Key:
Human fetal astrocytes [1] = experiment: loss of total cells relative to no-compound high-control median (toxicity); higher = more toxic (fewer cells); settings: 24 h
Human fetal astrocytes [2] = experiment: synaptosome phagocytosis (pHrodo/calcein intensity ratio) relative to plate median of data wells; higher = more phagocytosis; settings: 24 h

Row | Structure (SMILES) | loss of total cells (Human fetal astrocytes [1]; 1.39 µM) | loss of total cells (Human fetal astrocytes [1]; 2.78 µM) | loss of total cells (Human fetal astrocytes [1]; 5.56 µM) | loss of total cells (Human fetal astrocytes [1]; 11.11 µM) | loss of total cells (Human fetal astrocytes [1]; 22.22 µM) | synaptosome phagocytosis (Human fetal astrocytes [2]; 1.39 µM) | synaptosome phagocytosis (Human fetal astrocytes [2]; 2.78 µM) | synaptosome phagocytosis (Human fetal astrocytes [2]; 5.56 µM) | synaptosome phagocytosis (Human fetal astrocytes [2]; 11.11 µM) | synaptosome phagocytosis (Human fetal astrocytes [2]; 22.22 µM)
1 | CC(=O)Nc1cc2ccccc2oc1=O | 11.2% | 13.4% | -41.3% | 18% | 15.9% | 83.7% | 71.2% | 0% | 133% | 137%
2 | O=C1OC(c2ccc(O)cc2)(c2ccc(O)cc2)c2ccccc21 | 6.2% | -15.9% | -22.3% | 1.4% | -2.7% | 86.2% | 99.7% | 153% | 93.3% | 98.1%
3 | C/C(=C\C(=O)OCCCCCCCCC(=O)O)C[C@@H]1OC[C@H](C[C@@H]2O[C@H]2[C@@H](C)[C@H](C)O)[C@@H](O)[C@H]1O | -43.5% | 14.3% | 1.2% | 37% | 4.7% | 92.1% | 98.2% | 68.8% | 144% | 104%
4 | Clc1ccc(CO/N=C(\Cn2ccnc2)c2ccc(Cl)cc2Cl)c(Cl)c1 | -16.9% | 27% | 5% | 46.2% | 81.3% | 108% | 155% | 81% | 21.8% | 0%
5 | CN1CC(=O)NC1=N | 17% | 6.1% | -2.2% | -14.6% | 1.5% | 119% | 104% | 81.5% | 105% | 45.8%
6 | CNCc1ccccc1 | -8.2% | -1.8% | 0.7% | 10.8% | -3.7% | 124% | 80.3% | 125% | 130% | 121%
7 | NC(=O)N/N=C/c1ccc([N+](=O)[O-])o1 | 6.8% | -8.5% | -13.2% | 8.4% | -33.1% | 97.8% | 122% | 67.2% | 90.2% | 68.3%
8 | COc1cc(/C=C/C(=O)O)ccc1O | 30.7% | -49.5% | 23.9% | 13.8% | 19.7% | 147% | 6.2% | 85.1% | 105% | 122%
9 | Cc1c[nH]c2ccccc12 | 30.7% | 17% | 12.3% | 7.9% | 16.7% | 116% | 123% | 115% | 88.3% | 104%
10 | C=CCCCCCCCCCCCC(O)CC(O)COC(C)=O (stereo not given) | -7.6% | 4.7% | -7.2% | -19.7% | 4.5% | 104% | 83.4% | 56.2% | 30.2% | 71.2%
11 | CC1CC(OC(=O)C(O)c2ccccc2)CC(C)(C)C1 (stereo not given) | 19.9% | 15.5% | 26.1% | 19.7% | 14.4% | 133% | 97.3% | 76.6% | 132% | 111%
12 | CC(=O)OCC(CCn1cnc2cnc(N)nc21)COC(C)=O | -34.7% | -43.7% | 2.5% | -12.1% | -12.1% | 113% | 98.5% | 130% | 85.7% | 113%
13 | Cc1ccc(S(=O)(=O)NC(=O)NN2CC3CCCC3C2)cc1 (stereo not given) | 9% | 6.9% | 23.2% | 17.2% | 6.1% | 113% | 113% | 137% | 141% | 151%
14 | Cc1cccc2c3c(ccc12)C1=C(C(=O)C3=O)[C@@H](C)CO1 | -13.1% | -13.4% | 22% | 31.8% | 17% | 64.4% | 59.8% | 96.9% | 47% | 72.6%
15 | Cc1ccc(S(=O)(=O)NC(=O)NN2CCCCCC2)cc1 [Tolazamide] | -16.6% | -9.5% | 15.3% | -10.9% | 11.9% | 120% | 99.3% | 99.9% | 120% | 132%
16 | CCOC(=O)[N-]c1c[n+](N2CCOCC2)no1 [Molsidomine] | 2.1% | -9.2% | -6.3% | -9.5% | -42.2% | 102% | 97.8% | 97.3% | 86.6% | 83.1%
17 | O=C(CCBr)N1CCN(C(=O)CCBr)CC1 | -25.8% | -32.5% | -4.3% | 29.2% | 0.9% | 123% | 124% | 136% | 141% | 131%
18 | C#C[C@]1(O)CC[C@H]2[C@@H]3CCC4=C(CCC(=O)C4)[C@H]3CC[C@@]21C | -4.1% | -22.9% | 0.9% | 1.6% | 15.3% | 94.7% | 91.4% | 110% | 123% | 101%
19 | COC(=O)[C@@H]1[C@H]2C[C@H]3c4[nH]c5ccccc5c4CCN3C[C@@H]2CC[C@@H]1O | 25.2% | -5.8% | -18.8% | 5.5% | 19.8% | 94.5% | 102% | 97% | 80.2% | 121%
20 | CC(=O)OC1CC[C@@]2(C)C(CC[C@H]3[C@@H]4CC=C(C(C)=O)[C@@]4(C)C(=O)C[C@@H]32)C1 (stereo not given in full) | -19.9% | -5.3% | 31.3% | -1.3% | 41.1% | 94% | 109% | 132% | 84.1% | 146%
21 | Cc1nc(C)c(Cl)c(O)c1Cl | -20.2% | 19% | 2.5% | 34.4% | 3.4% | 116% | 124% | 92.5% | 149% | 91.8%

Row | Structure (SMILES) | loss of total cells (Human fetal astrocytes [1]; 1.39 µM) | loss of total cells (Human fetal astrocytes [1]; 2.78 µM) | loss of total cells (Human fetal astrocytes [1]; 5.56 µM) | loss of total cells (Human fetal astrocytes [1]; 11.11 µM) | loss of total cells (Human fetal astrocytes [1]; 22.22 µM) | synaptosome phagocytosis (Human fetal astrocytes [2]; 1.39 µM) | synaptosome phagocytosis (Human fetal astrocytes [2]; 2.78 µM) | synaptosome phagocytosis (Human fetal astrocytes [2]; 5.56 µM) | synaptosome phagocytosis (Human fetal astrocytes [2]; 11.11 µM) | synaptosome phagocytosis (Human fetal astrocytes [2]; 22.22 µM)
22 | C[C@H](CCC(=O)NCC(=O)O)[C@H]1CC[C@H]2[C@@H]3[C@H](O)C[C@@H]4C[C@H](O)CC[C@]4(C)[C@H]3C[C@H](O)[C@]12C | 14.8% | 12.6% | 19.6% | -4.6% | 3.8% | 85.3% | 138% | 115% | 117% | 114%
23 | C[C@@]12CCc3occc3[C@H]1CC[C@@]13C[C@@H](CC[C@H]12)[C@@](O)(CO)C3 | -27% | 6.1% | -6.6% | 3.4% | -3% | 99.1% | 91.4% | 85.5% | 104% | 82.6%
24 | Cc1ncc(C[n+]2csc(CCO)c2C)c(N)n1 | -26.6% | -28.6% | 2.5% | 29.8% | -0.9% | 107% | 115% | 127% | 136% | 111%
25 | Cc1ncc([N+](=O)[O-])n1CC(C)O (stereo not given) [1-(2-Methyl-5-nitro-imidazol-1-yl)-propan-2-ol] | 6.1% | 11.9% | 15.9% | 11.3% | 19.7% | 95.5% | 135% | 64.5% | 129% | 133%
26 | O=C(O)/C=C(/CC(=O)O)C(=O)O | -20.5% | -11.2% | -1.5% | 14.2% | 18.5% | 104% | 98.6% | 89.3% | 117% | 113%
27 | CCN1CCN(C(=O)N[C@@H](C(=O)N[C@@H]2C(=O)N3[C@@H]2SC(C)(C)[C@@H]3C(=O)O)c2ccccc2)C(=O)C1=O | -10.4% | 0.3% | -22.3% | -2.6% | 44.7% | 143% | 136% | 156% | 113% | 116%
28 | C[C@@H]1O[C@@H](O[C@H]2[C@H](Oc3cc(O)c4c(c3)O[C@H](c3ccc(O)cc3)CC4=O)O[C@H](CO)[C@@H](O)[C@@H]2O)[C@H](O)[C@H](O)[C@H]1O | 6.9% | 4% | 16.7% | -13% | -9.8% | 108% | 135% | 130% | 103% | 139%
29 | COc1ccc(-c2cc(=O)c3c(O)cc(O)cc3o2)cc1O | -12.3% | -15.5% | 7.3% | 20.3% | 10.4% | 80.2% | 96.5% | 127% | 85.9% | 68.4%
30 | CC(=O)OC1CCC2(C)C(=CCC3C2CCC2(C)C(C(C)CCCC(C)C)CCC32)C1 (stereo not given) | -16.3% | 9.3% | 21.4% | -1.3% | -23.3% | 87.7% | 116% | 134% | 76.8% | 112%
31 | CC(C(=O)O)c1ccc(C(=O)c2cccs2)cc1 (stereo not given) | -22.4% | -9.5% | 4.5% | 0% | 3.4% | 69.8% | 104% | 96.1% | 104% | 112%
32 | CN(N=O)C(=O)N[C@@H]1[C@@H](O)[C@H](O)[C@@H](CO)O[C@@H]1O | 1.5% | -22.7% | -11.8% | -8.4% | 2.7% | 92% | 138% | 89.9% | 108% | 110%
33 | CCN(CCCc1ccccc1)CCCc1ccccc1 | -0.8% | -16.8% | 5.7% | -2.3% | 21.5% | 72.6% | 75% | 70.8% | 103% | 80.3%
34 | CC(C)(Oc1ccc(CCNC(=O)c2ccc(Cl)cc2)cc1)C(=O)O | 17.4% | 4.6% | -4.5% | -32% | -4.5% | 100% | 81.4% | 107% | 118% | 89.1%
35 | C=C(C)[C@@H]1CC=C(C(=O)O)CC1 | 11.2% | 9.7% | 18.1% | 0.4% | 4.5% | 156% | 129% | 117% | 128% | 117%
36 | Cc1nc2sccn2c(=O)c1CCN1CCC(=C(c2ccc(F)cc2)c2ccc(F)cc2)CC1 [Ritanserin] | -39.5% | -50% | -9.3% | -8.9% | 12.8% | 94.8% | 67.9% | 89.3% | 69.3% | 57.1%
37 | CC1(C)O[C@@H]2[C@@H](CO[C@@]3(COS(N)(=O)=O)OC(C)(C)O[C@@H]23)O1 | -17.4% | -3.4% | -0.3% | -29.7% | 3.4% | 108% | 114% | 99.3% | 136% | 101%
38 | O=C1OCCN1/N=C/c1ccc([N+](=O)[O-])o1 | 9.2% | -18% | 7% | -13% | 27.7% | 100% | 90.1% | 113% | 94.1% | 91.6%
39 | CC1=CC(=O)c2ccccc2C1=O | -25% | -11.1% | 1.9% | 52.8% | 28.3% | 112% | 90.4% | 101% | 116% | 96.2%
40 | CN(C)CCCN1c2ccccc2Sc2ccccc21 [Promazine hydrochloride] | 8.6% | -9.2% | -14.6% | 29.1% | 44.7% | 91.5% | 81.6% | 75.6% | 51.3% | 17.1%
41 | O=c1[nH]c(=O)n([C@H]2C[C@H](O)[C@@H](CO)O2)cc1C(F)(F)F | 12.1% | -29.4% | 18% | 31.1% | 2.8% | 141% | 97.8% | 133% | 114% | 119%

Some of the entries so far, as a markdown table:

| Row | Structure (SMILES) | loss of total cells (Human fetal astrocytes [1]; 1.39 µM) | loss of total cells (Human fetal astrocytes [1]; 2.78 µM) | loss of total cells (Human fetal astrocytes [1]; 5.56 µM) | loss of total cells (Human fetal astrocytes [1]; 11.11 µM) | loss of total cells (Human fetal astrocytes [1]; 22.22 µM) | synaptosome phagocytosis (Human fetal astrocytes [2]; 1.39 µM) | synaptosome phagocytosis (Human fetal astrocytes [2]; 2.78 µM) | synaptosome phagocytosis (Human fetal astrocytes [2]; 5.56 µM) | synaptosome phagocytosis (Human fetal astrocytes [2]; 11.11 µM) | synaptosome phagocytosis (Human fetal astrocytes [2]; 22.22 µM) |
| --- | --- | --- | --- | --- | --- | --- | --- | --- | --- | --- | --- |
| 23 | C[C@@]12CCc3occc3[C@H]1CC[C@@]13C[C@@H](CC[C@H]12)[C@@](O)(CO)C3 | -27% | 6.1% | -6.6% | 3.4% | -3% | 99.1% | 91.4% | 85.5% | 104% | 82.6% |
| 24 | Cc1ncc(C[n+]2csc(CCO)c2C)c(N)n1 | -26.6% | -28.6% | 2.5% | 29.8% | -0.9% | 107% | 115% | 127% | 136% | 111% |
